The values below come from PMC6464043.

These are yes or no findings as the source states them, for the method shown. Binding seen in cells or lysates may run through a third protein. Some entries that bind do so weakly or less than the wild type.

In this assay the target is T1, Mcm3 (X. laevis (endogenous in egg extract)) (UniProt P49739).
T1 sequence: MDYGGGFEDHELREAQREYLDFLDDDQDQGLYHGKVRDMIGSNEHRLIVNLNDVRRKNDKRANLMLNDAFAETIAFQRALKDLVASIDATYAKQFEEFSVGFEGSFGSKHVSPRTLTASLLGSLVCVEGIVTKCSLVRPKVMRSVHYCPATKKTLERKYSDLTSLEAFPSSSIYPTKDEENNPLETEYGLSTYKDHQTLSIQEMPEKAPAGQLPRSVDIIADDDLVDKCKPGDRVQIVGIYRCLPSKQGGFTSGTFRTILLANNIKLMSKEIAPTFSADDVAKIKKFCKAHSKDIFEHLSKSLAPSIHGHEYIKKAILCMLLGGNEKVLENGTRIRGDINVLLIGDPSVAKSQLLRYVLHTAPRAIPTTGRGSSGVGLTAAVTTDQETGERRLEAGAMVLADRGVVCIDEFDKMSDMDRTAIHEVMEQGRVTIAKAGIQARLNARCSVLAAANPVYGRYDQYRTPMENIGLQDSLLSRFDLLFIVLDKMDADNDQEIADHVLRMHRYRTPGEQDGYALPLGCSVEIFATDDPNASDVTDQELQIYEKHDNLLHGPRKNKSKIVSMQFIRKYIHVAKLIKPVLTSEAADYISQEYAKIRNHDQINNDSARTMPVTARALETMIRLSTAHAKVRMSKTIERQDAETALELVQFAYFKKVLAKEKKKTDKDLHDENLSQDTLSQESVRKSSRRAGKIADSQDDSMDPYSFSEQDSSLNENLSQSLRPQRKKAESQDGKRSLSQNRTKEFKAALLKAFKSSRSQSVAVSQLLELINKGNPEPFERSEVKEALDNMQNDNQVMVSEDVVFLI
The assay can be described thus: co-IP; small proportion of the material of the mitotic Mcm3 immunoprecipitation analysed by Western blotting.

B1: TRAIP ubiquitin ligase (protein, UniProt Q6NRV0 1-464)
chain: MPIRAYCTICSDFFDNARDVAAITCGHTFHQECLLQWFHSAPHRTCPQCRIQVSSRQIINKLFFDIGGEEETVLDAESLKNEVDRIKASLLVKEKEKRECQGLVDSLREMLDVRNVTIQSQQKELGDMEMLCSTLKKQIKFLDKQQSETKAAKDEARKLRNKLKTMESIEVLLQSQRSEVEEMIRDMGSGQAAVEQLAIYCVSLKKEYENLKEVRKSSAEMTEKLRKELFSSNHKAQKAELELTKVREELSASQKELHSADKEIMSLKKKVEFLQKTLTTPTASNEAISRLIFESPAPIGLERPKLRPPMMGNDINLDVTFDIDTPEHNTQKSVVAPFKKMKFDNKEHPLSSPTKNPLQESKGLMSWAGGRTGADEDDDLTLPSFIKNSLLHKKPVGSLLGLRQNTGAVRTGFDGLGGRTKFIQPSNLTEIRPLHQKMKRKKVSRPTACTSSLANQPRLEDFLK
Take B1: the binding result is on record as “binds”.
